# Measurements reported in PubChem BioAssay AID1259405 (NCATS, 2018)
# Aim: 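Silenced genes that increase secreted GFP made by CHO cells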 (primary screen)
# System: Chinese hamster CHO-K1 ovary cells with stable secreted eGFP expression
# Reagent: single siRNA against mouse genes, 0.8 pmol siRNA per well (2 µl of 400 nM stock)
# Time to read-out: 3 days
# Measured: 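Per-well intracellular GFP measured by laser scanning cytometry, plus viability from ATP luminescence, each relative to plate median of non-targeting control wells, in %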
# Direction: GFP, % of control: higher = more GFP per well, higher productivity; viability (ATP), % of control: higher = more viable cells (more ATP)
# Active means: 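a knock-down is called active if GFP reaches 120% or more of non-targeting control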
# Here is a random part of about 50,000 reagents tested. Over the whole deposit, about 4,000 (8%) were called active. 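Mouse siRNA library applied to hamster cells; one well for each siRNA.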 The numbers tell different reagents against one gene apart. No sequences are given here.
Target gene,reagent no.,"GFP, % of control","viability (ATP), % of control",call
Or14a259 (olfactory receptor family 14 subfamily A member 259),1,104,67.7,inactive
Or14a259 (olfactory receptor family 14 subfamily A member 259),2,55.2,70.3,inactive
Or14a259 (olfactory receptor family 14 subfamily A member 259),3,97.6,46.2,inactive
Trp53bp2 (transformation related protein 53 binding protein 2),1,77.3,81.5,inactive
Trp53bp2 (transformation related protein 53 binding protein 2),2,139,78.9,active
Trp53bp2 (transformation related protein 53 binding protein 2),3,160,51.7,active
Gm3579 (predicted gene 3579),1,69.2,91.9,inactive
Gm3579 (predicted gene 3579),2,91.1,94.1,inactive
Gm3579 (predicted gene 3579),3,39.1,36.7,inactive
"Slitrk3 (SLIT and NTRK-like family, member 3)",1,50.1,34.5,inactive
"Slitrk3 (SLIT and NTRK-like family, member 3)",2,82.9,81.4,inactive
"Slitrk3 (SLIT and NTRK-like family, member 3)",3,48.9,71.2,inactive
Slfn1 (schlafen 1),1,96.4,70.3,inactive
Slfn1 (schlafen 1),2,88.8,66.1,inactive
Slfn1 (schlafen 1),3,55.3,55.4,inactive
Hspb3 (heat shock protein family B (small) member 3),1,115,24.8,inactive
Hspb3 (heat shock protein family B (small) member 3),2,120,96.7,inactive
Hspb3 (heat shock protein family B (small) member 3),3,87.5,65.1,inactive
Or8g55 (olfactory receptor family 8 subfamily G member 55),1,67.2,59.7,inactive
Or8g55 (olfactory receptor family 8 subfamily G member 55),2,48.7,66.9,inactive
Or8g55 (olfactory receptor family 8 subfamily G member 55),3,79.3,58.7,inactive
Or2t6 (olfactory receptor family 2 subfamily T member 6),1,113,83.4,inactive
Or2t6 (olfactory receptor family 2 subfamily T member 6),2,62.3,85.9,inactive
Or2t6 (olfactory receptor family 2 subfamily T member 6),3,54.4,87.1,inactive
Pak1 (p21 (RAC1) activated kinase 1),1,78.7,58.8,inactive
Klk1b4 (kallikrein 1-related pepidase b4),1,84.3,72.7,inactive
Klk1b4 (kallikrein 1-related pepidase b4),2,52.8,56.8,inactive
Klk1b4 (kallikrein 1-related pepidase b4),3,65.3,77.3,inactive
A430072C10Rik (RIKEN cDNA A430072C10 gene),1,73.3,64.4,inactive
A430072C10Rik (RIKEN cDNA A430072C10 gene),2,104,61.6,inactive
A430072C10Rik (RIKEN cDNA A430072C10 gene),3,67.2,77.8,inactive
Rnf182 (ring finger protein 182),1,79.6,79.8,inactive
Rnf182 (ring finger protein 182),2,97.6,80.4,inactive
Rnf182 (ring finger protein 182),3,115,139,inactive
Vmn1r179 (vomeronasal 1 receptor 179),1,79.5,72.1,inactive
Vmn1r179 (vomeronasal 1 receptor 179),2,85.4,58,inactive
Vmn1r179 (vomeronasal 1 receptor 179),3,68.8,91.9,inactive

Single entries from the entries so far:
Value of Trp53bp2 (transformation related protein 53 binding protein 2) #1 under “viability (ATP), % of control”: 81.5
Value for Slfn1 (schlafen 1) #3 in “call”: inactive
Hspb3 (heat shock protein family B (small) member 3) #2, GFP, % of control → 120
Under “viability (ATP), % of control”, Or14a259 (olfactory receptor family 14 subfamily A member 259) #2 has 70.3
Or8g55 (olfactory receptor family 8 subfamily G member 55) #2, viability (ATP), % of control = 66.9
